The results in this text go back to patent US7311743B2, “Biofiltration apparatus and method for reducing methyl bromide concentration in a volume of gas” (Energy Resource Institute, Inc., priority 2004, dated 2007).

In the data set the test system is methyl bromide-degrading bacteria. Briefly: Methyl bromide removal in the biotrickling filter. To be noted: for Elimination capacity / Outlet concentration: EBRT = 94 s. The source says: A biotrickling filter was constructed as schematically represented in FIG. 2. The apparatus included three packed bed sections filled with lava rock, perlite or polyurethane as packing materials. Other equipment included an air supply, a methyl bromide supply, recycle liquid circulation, a nutrient supply (as a complete mineral medium), and a pH control by automatic addition of NaOH. The biotrickling filter was usually operated at standard conditions as specified in Table 1.
Cultures of methyl bromide-degrading bacteria were obtained by inoculating or exposing the substrate component of the apparatus with a variety of natural sources or materials, such as soil and sediment. A continuous supply of a low concentration (about 0 to about 10 g/m^3) of methyl bromide was supplied to the apparatus. The first signs of methyl bromide removal were observed after about 6-12 days of operation of the apparatus. The methyl bromide elimination capacity seemed to reach a maximum value after about 35-40 days of operation. During operation, the pH in the recycle liquid declined, small amounts of bromide were produced in the recycle liquid, and the CO2 concentration in the outlet air increased.
The fate of methyl bromide in the biotrickling filter was determined by comparing the rate of methyl bromide removal with the rates of CO2 production, bromide ion production and NaOH consumption as expected from the biodegradation reaction stoichiometry. Biodegradation of methyl bromide and pH control occur according to the following reactions 2CH3Br+3O2→2HBr+2 CO2+2H2O Equation 3 HBr+NaOH→NaBr+H2O Equation 4
The effect of the liquid recycle or trickling rate was examined at the lower and higher end of the range of recycle rates commonly employed in biotrickling filters. Methyl bromide removal was the same at a trickling rates of 2.55 and 22.2 L/h, corresponding to superficial liquid velocities of 2.0 and 17.7 m/h, respectively (Table 2).
The maximum elimination capacity of methyl bromide in the biotrickling filter was determined by stepwise increasing the methyl bromide concentration. Depending on the inlet concentration, the following phases can be distinguished: […]

Setting [1] is: gas flow cocurrent, inlet 3.042 g/m^3.
Setting [2] is: gas flow countercurrent (standard operation), inlet 3.713 g/m^3.
The mark [3] stands for this setting: superficial liquid velocity 2.0 m/h (standard operation), inlet 2.927 g/m^3.
Setting [4] is: superficial liquid velocity 17.7 m/h, inlet 2.927 g/m^3.

On to `CBr` [Methyl bromide], for which the Elimination capacity turned out to be 73.3 g/m^3 · h under setting [1], 98.6 g/m^3 · h under setting [2], 99.8 g/m^3 · h under setting [3] and 102.3 g/m^3 · h under setting [4]. Also, the Outlet concentration was 1.122 g/m^3 under setting [1], 1.130 g/m^3 under setting [2], 0.312 g/m^3 under setting [3] and 0.249 g/m^3 under setting [4]. Moreover, the “Removed methyl bromide recovered as CO2” value (molar carbon basis, inlet concentrations 0-5.5 g/m^3) was 95%. Also, the “Bromide ion production relative to the amount of methyl bromide removed” value (on average, inlet concentrations 0-5.5 g/m^3) was 108%.
